Test results from paper PMC12052773.
No constants are given. Whether binding was seen depends on the method and setting. In cells and extracts the contact can be indirect. Some results given as binding are weak or reduced against the parent protein; the word gives no strength. For some assays here: Tags and fused reporters may be left off the sequences shown.

By UniProt entry, the sequences of proteins in these tests, tags left out.
UniProt P53396: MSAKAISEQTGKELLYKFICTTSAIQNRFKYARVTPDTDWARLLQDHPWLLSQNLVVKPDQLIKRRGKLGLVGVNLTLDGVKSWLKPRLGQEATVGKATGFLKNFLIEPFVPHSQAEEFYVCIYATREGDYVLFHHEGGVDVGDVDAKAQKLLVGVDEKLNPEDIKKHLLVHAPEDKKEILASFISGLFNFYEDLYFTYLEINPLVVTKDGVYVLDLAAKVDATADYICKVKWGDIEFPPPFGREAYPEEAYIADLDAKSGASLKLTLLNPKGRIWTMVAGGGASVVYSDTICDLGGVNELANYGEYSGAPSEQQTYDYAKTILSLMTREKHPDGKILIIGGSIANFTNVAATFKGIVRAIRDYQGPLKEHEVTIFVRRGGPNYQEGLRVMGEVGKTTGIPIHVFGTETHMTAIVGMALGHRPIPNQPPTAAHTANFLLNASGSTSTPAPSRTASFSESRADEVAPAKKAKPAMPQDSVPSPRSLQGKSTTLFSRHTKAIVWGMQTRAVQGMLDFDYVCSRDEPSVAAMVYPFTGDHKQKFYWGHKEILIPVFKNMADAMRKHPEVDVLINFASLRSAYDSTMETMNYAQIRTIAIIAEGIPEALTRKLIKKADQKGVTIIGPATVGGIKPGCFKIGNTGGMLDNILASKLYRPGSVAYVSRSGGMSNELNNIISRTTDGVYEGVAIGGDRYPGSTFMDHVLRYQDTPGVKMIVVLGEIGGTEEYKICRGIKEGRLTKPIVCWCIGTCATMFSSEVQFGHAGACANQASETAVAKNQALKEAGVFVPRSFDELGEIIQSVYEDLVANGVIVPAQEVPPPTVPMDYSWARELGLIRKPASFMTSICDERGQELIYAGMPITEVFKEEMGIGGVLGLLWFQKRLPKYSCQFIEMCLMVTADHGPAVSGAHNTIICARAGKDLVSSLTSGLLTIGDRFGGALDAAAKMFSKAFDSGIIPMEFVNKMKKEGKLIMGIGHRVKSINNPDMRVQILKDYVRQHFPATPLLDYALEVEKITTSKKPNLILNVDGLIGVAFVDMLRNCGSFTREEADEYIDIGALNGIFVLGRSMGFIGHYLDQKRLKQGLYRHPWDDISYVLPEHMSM

Legend:
[1] = molecular target: T1, RNF180 (Ring finger protein 180), endogenous in KYSE-150 cells (human (endogenous in KYSE-150)) (UniProt Q86T96); assay: co-IP; cell lysates in RIPA (>1000 ug) incubated with antibody against RNF180, ACC1 or ACLY, then Protein G agarose beads, washed four times with RIPA, Western blot; KYSE-150 cells and RNF180 transfectants, with or without MG132 (5 uM, 9 h)
T1 sequence: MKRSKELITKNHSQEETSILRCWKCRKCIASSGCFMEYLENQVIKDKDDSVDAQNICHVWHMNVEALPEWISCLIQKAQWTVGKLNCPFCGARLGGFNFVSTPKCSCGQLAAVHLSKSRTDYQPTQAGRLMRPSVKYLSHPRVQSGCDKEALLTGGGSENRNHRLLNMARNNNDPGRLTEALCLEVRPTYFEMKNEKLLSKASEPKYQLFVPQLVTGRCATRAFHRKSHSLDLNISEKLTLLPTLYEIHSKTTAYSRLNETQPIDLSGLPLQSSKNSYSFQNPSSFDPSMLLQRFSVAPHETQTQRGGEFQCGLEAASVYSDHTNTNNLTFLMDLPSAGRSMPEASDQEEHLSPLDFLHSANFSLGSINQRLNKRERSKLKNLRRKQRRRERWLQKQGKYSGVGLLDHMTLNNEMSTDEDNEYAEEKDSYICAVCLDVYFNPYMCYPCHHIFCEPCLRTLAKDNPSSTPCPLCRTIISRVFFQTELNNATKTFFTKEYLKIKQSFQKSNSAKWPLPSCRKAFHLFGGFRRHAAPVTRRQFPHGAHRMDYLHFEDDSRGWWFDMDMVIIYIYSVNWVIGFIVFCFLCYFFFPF

[2] = molecular target: T2, RNF180 (Ring finger protein 180), 3xFLAG-tagged, overexpressed in KYSE-150 cells (human) (UniProt Q86T96); assay: as above
T2 sequence: T1 sequence

- binding [1]: binds
- binding [2]: binds
Substance: ACLY (from UniProt P53396 1-1101) (enzyme)
